# Data as given in PubChem BioAssay AID1259308 (NCATS, 2017).
# Screen: 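Genes whose loss raises luciferase production in HEK293 cells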 (primary screen)
# Cell system: human HEK293 embryonic kidney cells stably expressing firefly luciferase (HEK-CMV-Luc2-Hygro)
# Reagent: single siRNA against human genes, 0.8 pmol siRNA per well
# Time to read-out: 72 h
# Read-out: 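Luciferase light (ONE-Glo) measured on one replicate plate set and viability (CellTiter-Glo) on the other, scaled to a negative control siRNA, with robust z-scores and luciferase per cell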
# Scale: total luciferase, z-score and total luciferase, % of control: higher = more reporter protein produced; luciferase per cell, z-score: higher = more reporter output per viable cell; viable cells, % of control: higher = more viable cells
# Call rule: 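An siRNA counts as active if its total luciferase robust z-score exceeds 3; genes with two or more such siRNAs out of three were retested with fresh siRNAs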
# Meaning of the calls: active = raised luciferase; inactive = no rise
# Shown is one part, drawn at random, of about 59,000 deposited reagents. Of all reagents, about 1,510 (2.6%) got an active call. 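Calls use total luciferase alone and ignore viability, so some active siRNAs may act by altering cell number.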 Entries without a mark were called inactive. The numbers tell different reagents against one gene apart.
Gene,reagent no.,"total luciferase, z-score","total luciferase, % of control","luciferase per cell, z-score","viable cells, % of control"
PGBD4,1,0.381,89.5,0.4,90
PGBD4,2,-1.11,59.8,-1.09,89
PGBD4,3,1.11,104,0.455,103
HPR,1,-0.111,79.7,-0.737,108
HPR,2,-0.676,68.5,-1.01,99.8
HPR,3,0.269,87.2,-0.232,104
FAM199X,1,-0.722,67.5,0.108,73.3
FAM199X,2,-0.224,77.4,-0.25,92.4
FAM199X,3,0.212,86.1,-0.272,103
HCAR1,1,0.387,89.6,1.38,69.7
HCAR1,2,0.989,102,0.607,96.7
HCAR1,3,0.818,98.2,0.396,98.8
HLA-DQB2,1,-3.19,18.4,-3.4,50.5
HLA-DQB2,2,-0.514,71.7,-0.546,92.5
HLA-DQB2,3,-1.31,55.9,0.176,59.7
RPUSD1,1,-0.306,75.8,-0.255,90.6
RPUSD1,2,-1.83,45.4,-2.7,103
RPUSD1,3,0.402,89.9,0.112,97.5
S100A3,1,0.217,86.2,2.02,56.5
S100A3,2,0.589,93.6,0.576,89.9
S100A3,3,1.07,103,1.46,78.5
DCHS1,1,0.947,101,0.516,98.3
DCHS1,2,-0.13,79.3,-0.17,92.7
DCHS1,3,0.416,90.2,-0.0216,101
KCNB1,1,0.747,96.8,0.698,90
KCNB1,2,0.164,85.2,0.307,87.8
KCNB1,3,-0.706,67.9,-0.991,98.4
MARS2,1,-2.45,33.3,-2.73,76.2
MARS2,2,-0.083,80.2,0.811,72.4
MARS2,3,0.704,95.9,0.384,96.8
ZNF165,1,1.23,106,1.02,90.9
ZNF165,2,0.542,92.7,0.128,100
ZNF165,3,0.411,90.1,-0.0735,103
KLHL14,1,-0.246,77,-0.225,91.3
KLHL14,2,3.1 (active),143,4.25,52.4
KLHL14,3,-0.251,76.9,-0.433,96.3
LEFTY2,1,-0.454,72.9,-0.586,95
LEFTY2,2,-2.11,39.8,-3.08,100
LEFTY2,3,1.02,102,0.442,102

Quoted from above for reference:
Gene,reagent no.,"total luciferase, z-score","total luciferase, % of control","luciferase per cell, z-score","viable cells, % of control"
HCAR1,3,0.818,98.2,0.396,98.8
HLA-DQB2,1,-3.19,18.4,-3.4,50.5
HLA-DQB2,2,-0.514,71.7,-0.546,92.5
HLA-DQB2,3,-1.31,55.9,0.176,59.7
